According to patent US20200405758A1:
These are yes or no findings as the source states them, for the method shown. Some binding calls cover weakened binding; strength is not graded here.

Biological target: T1, SEQ ID NO: 2 peptide (Modified sequence of Antigen; BCMA peptide with Cysteine and Proline added at N terminal end)
T1 sequence (peptide): CPAALSATEIEKSIS
Experiment: ELISA on coated SEQ ID NO: 2 peptide

- binding: binds
B1: BCMA mAb clone 1E1E (hybridoma supernatant) (antibody, V domains shown)
VH: QIQLVQSGPELKKPGETVKISCKASGYTFTNSGMNWVKQAPGKGLKWMGWINTYTGEPTYADDFKGRFAFSLETSASTAYLQINNLKNEDTATYFCVRAGSYRNYAMDYWGQGTSVTVSS
VL: DIVMTQAAPSVLVTPGESVSISCRSSKSLLYGNGNTYLYWFLQRPGQSPQLLIYRMSNLASGVPDRFSGSGSGTAFTLRISRVEAEDVGVYYCMQHLEYPLTFGAGTKLELK
